Results taken from paper PMC9681213.

Target: FolSvp1 without the signal peptide (ΔSPFolSvp1), two-hybrid bait (Fusarium oxysporum f. sp. lycopersici)
Assay: two-hybrid; GAL4-based, pairs co-transformed into Y2HGold: bait in pGBKT7, prey in pGADT7; growth on DDO and QDO/A (125 ng/ml AbA); all constructs without the predicted signal peptide

B1: SlPR1 without the signal peptide (ΔSPSlPR1), two-hybrid prey (protein, UniProt P04284 25-159)
chain: QNSPQDYLAVHNDARAQVGVGPMSWDANLASRAQNYANSRAGDCNLIHSGAGENLAKGGGDFTGRAAVQLWVSERPSYNYATNQCVGGKKCRHYTQVVWRNSVRLGCGRARCNNGWWFISCNYDPVGNWIGQRPY
binding: binds

No constants are given. Whether binding was seen depends on the method and setting. Binding can be weak; no strength is given.
